Laboratory results published in ChEMBL document CHEMBL5537214, “Amine-containing donepezil analogues as potent acetylcholinesterase inhibitors with increased polarity” (RSC Med Chem, 2024).

Key:
physchem = details: octanol/water
in vitro = details: PAMPA

Work on `COc1cc2c(cc1OC)C(=O)C(CC1CCN(Cc3ccccc3)CC1)C2` (configuration not stated) [DONEPEZIL] yielded a logD (physchem) of 1.6 and a Papp at 8 h (in vitro) of 11.4 ×10⁻⁶ cm/s.
